This note sets out measurements from publication doi:10.1101/2021.03.12.434960.

This test deals with T1, full-length human KIF5A, C-terminal mScarlet-StrepII (human), Q12840.
T1 chain: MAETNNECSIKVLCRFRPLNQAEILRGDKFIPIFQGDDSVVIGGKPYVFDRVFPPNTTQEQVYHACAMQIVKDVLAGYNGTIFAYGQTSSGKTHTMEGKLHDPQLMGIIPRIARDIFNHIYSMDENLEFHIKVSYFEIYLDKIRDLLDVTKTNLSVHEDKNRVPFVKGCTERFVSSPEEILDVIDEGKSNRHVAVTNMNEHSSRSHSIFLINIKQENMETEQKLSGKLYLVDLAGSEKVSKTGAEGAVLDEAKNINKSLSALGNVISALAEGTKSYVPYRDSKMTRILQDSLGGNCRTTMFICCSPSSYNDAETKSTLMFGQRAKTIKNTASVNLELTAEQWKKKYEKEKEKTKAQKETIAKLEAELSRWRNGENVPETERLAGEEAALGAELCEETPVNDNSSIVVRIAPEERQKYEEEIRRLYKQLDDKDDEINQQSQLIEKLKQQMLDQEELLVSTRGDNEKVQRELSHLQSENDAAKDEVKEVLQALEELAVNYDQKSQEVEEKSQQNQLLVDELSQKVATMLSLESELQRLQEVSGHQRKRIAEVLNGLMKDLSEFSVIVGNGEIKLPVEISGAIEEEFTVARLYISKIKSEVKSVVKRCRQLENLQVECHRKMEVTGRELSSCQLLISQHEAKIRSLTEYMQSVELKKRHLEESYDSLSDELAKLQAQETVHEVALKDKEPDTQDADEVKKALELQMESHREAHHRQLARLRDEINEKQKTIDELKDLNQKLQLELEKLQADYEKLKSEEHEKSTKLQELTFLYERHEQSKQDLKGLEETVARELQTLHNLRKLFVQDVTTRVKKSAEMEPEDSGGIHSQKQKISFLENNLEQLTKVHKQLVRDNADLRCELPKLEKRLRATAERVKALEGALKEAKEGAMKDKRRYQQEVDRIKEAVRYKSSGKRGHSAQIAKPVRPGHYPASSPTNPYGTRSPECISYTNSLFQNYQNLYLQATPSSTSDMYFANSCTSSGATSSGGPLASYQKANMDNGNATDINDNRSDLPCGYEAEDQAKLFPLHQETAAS
The test can be described thus: SEC-MALS. The conditions noted are these: remark: other sources report otherwise. (Size exclusion chromatography separates by hydrodynamic size, large species first.)

No constants are given. Whether binding was seen depends on the method and setting. Some binding calls cover weakened binding; strength is not graded here.

B1: full-length human KIF5A, C-terminal mScarlet-StrepII, Q12840 1-1032 (natural protein)
chain: MAETNNECSIKVLCRFRPLNQAEILRGDKFIPIFQGDDSVVIGGKPYVFDRVFPPNTTQEQVYHACAMQIVKDVLAGYNGTIFAYGQTSSGKTHTMEGKLHDPQLMGIIPRIARDIFNHIYSMDENLEFHIKVSYFEIYLDKIRDLLDVTKTNLSVHEDKNRVPFVKGCTERFVSSPEEILDVIDEGKSNRHVAVTNMNEHSSRSHSIFLINIKQENMETEQKLSGKLYLVDLAGSEKVSKTGAEGAVLDEAKNINKSLSALGNVISALAEGTKSYVPYRDSKMTRILQDSLGGNCRTTMFICCSPSSYNDAETKSTLMFGQRAKTIKNTASVNLELTAEQWKKKYEKEKEKTKAQKETIAKLEAELSRWRNGENVPETERLAGEEAALGAELCEETPVNDNSSIVVRIAPEERQKYEEEIRRLYKQLDDKDDEINQQSQLIEKLKQQMLDQEELLVSTRGDNEKVQRELSHLQSENDAAKDEVKEVLQALEELAVNYDQKSQEVEEKSQQNQLLVDELSQKVATMLSLESELQRLQEVSGHQRKRIAEVLNGLMKDLSEFSVIVGNGEIKLPVEISGAIEEEFTVARLYISKIKSEVKSVVKRCRQLENLQVECHRKMEVTGRELSSCQLLISQHEAKIRSLTEYMQSVELKKRHLEESYDSLSDELAKLQAQETVHEVALKDKEPDTQDADEVKKALELQMESHREAHHRQLARLRDEINEKQKTIDELKDLNQKLQLELEKLQADYEKLKSEEHEKSTKLQELTFLYERHEQSKQDLKGLEETVARELQTLHNLRKLFVQDVTTRVKKSAEMEPEDSGGIHSQKQKISFLENNLEQLTKVHKQLVRDNADLRCELPKLEKRLRATAERVKALEGALKEAKEGAMKDKRRYQQEVDRIKEAVRYKSSGKRGHSAQIAKPVRPGHYPASSPTNPYGTRSPECISYTNSLFQNYQNLYLQATPSSTSDMYFANSCTSSGATSSGGPLASYQKANMDNGNATDINDNRSDLPCGYEAEDQAKLFPLHQETAAS
For B1, the binding result is given as “binds”.
